This is an account of results in PubChem BioAssay AID2396 (Broad Institute, 2010).

Some of the results follow. Results with a measured potency or affinity are listed apart. Where no call is shown, the source marks the result inconclusive.

The assay in a line: Confirmatory concentration-response luminescence assay for anti-trypanosomal compounds in parasite-infected mouse fibroblasts (AID 2396). The settings on record: T. cruzi beta-gal in NIH3T3, GalScreen luminescence, 90 h; at 19.5 µM (top of the series).

`COCc1cc(CN2CCCC(CNC(=O)c3ccc(F)cc3)C2)ccc1OC` (configuration not stated) came in with an activity change, negative = inhibition of -48.1.

On to `O=C(NCC1CCCN(Cc2cccc(C(F)(F)F)c2)C1)c1ccc(F)cc1` (configuration not stated), for which the activity change, negative = inhibition was -49.1.
